Results are given in words; binding and its absence hold for the method and conditions named. In cells and extracts the contact can be indirect. Here binding means that the protein was enriched with, or labelled near, the bait; the list need not be complete. Sequences can lack the tags named with a protein.
T1: PfSKP1-HA (P. falciparum) (UniProt Q8ID38)
T1 sequence: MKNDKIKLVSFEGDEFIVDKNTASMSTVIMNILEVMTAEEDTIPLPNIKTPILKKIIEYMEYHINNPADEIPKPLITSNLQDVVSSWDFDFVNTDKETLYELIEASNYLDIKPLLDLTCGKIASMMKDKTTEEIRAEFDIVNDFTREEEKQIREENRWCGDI

Sequences of proteins named here, by UniProt entry; tags and fusion partners are left off. A change or cut given only in a name is not applied to a line headed by its entry.
UniProt C6KSU5: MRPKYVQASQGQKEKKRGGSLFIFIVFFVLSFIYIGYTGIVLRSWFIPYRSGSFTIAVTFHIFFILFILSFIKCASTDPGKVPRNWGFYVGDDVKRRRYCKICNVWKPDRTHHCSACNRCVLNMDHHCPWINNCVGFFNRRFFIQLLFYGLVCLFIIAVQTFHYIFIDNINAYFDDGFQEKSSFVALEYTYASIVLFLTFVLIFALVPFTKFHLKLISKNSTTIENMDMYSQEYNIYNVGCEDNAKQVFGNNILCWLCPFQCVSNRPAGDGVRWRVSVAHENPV
UniProt Q8I3N7: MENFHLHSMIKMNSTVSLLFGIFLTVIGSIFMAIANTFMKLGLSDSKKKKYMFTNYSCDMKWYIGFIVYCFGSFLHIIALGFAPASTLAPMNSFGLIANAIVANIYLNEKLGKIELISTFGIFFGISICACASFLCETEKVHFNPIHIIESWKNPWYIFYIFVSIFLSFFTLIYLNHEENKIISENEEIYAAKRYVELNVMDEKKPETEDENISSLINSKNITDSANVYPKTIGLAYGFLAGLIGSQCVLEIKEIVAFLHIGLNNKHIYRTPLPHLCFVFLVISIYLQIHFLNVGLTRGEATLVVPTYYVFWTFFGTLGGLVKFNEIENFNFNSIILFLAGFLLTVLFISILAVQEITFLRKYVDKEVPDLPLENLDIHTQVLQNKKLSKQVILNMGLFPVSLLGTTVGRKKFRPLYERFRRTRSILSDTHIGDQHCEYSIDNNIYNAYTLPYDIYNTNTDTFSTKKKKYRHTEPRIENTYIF
UniProt Q8I3V1: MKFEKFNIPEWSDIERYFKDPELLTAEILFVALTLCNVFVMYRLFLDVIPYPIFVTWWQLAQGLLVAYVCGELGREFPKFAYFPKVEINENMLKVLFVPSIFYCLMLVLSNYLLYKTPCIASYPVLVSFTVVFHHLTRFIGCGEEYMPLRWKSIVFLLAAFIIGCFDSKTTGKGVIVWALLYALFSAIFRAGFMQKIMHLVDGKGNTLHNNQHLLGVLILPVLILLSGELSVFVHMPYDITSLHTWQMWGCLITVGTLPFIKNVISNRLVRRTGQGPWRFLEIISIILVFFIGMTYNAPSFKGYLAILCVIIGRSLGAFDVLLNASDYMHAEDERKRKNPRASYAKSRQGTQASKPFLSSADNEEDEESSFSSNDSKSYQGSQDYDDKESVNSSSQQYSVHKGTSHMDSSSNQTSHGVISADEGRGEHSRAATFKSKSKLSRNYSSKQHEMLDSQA

T2: PfMCM4-Flag (P. falciparum) (UniProt Q8IEE5)
T2 sequence: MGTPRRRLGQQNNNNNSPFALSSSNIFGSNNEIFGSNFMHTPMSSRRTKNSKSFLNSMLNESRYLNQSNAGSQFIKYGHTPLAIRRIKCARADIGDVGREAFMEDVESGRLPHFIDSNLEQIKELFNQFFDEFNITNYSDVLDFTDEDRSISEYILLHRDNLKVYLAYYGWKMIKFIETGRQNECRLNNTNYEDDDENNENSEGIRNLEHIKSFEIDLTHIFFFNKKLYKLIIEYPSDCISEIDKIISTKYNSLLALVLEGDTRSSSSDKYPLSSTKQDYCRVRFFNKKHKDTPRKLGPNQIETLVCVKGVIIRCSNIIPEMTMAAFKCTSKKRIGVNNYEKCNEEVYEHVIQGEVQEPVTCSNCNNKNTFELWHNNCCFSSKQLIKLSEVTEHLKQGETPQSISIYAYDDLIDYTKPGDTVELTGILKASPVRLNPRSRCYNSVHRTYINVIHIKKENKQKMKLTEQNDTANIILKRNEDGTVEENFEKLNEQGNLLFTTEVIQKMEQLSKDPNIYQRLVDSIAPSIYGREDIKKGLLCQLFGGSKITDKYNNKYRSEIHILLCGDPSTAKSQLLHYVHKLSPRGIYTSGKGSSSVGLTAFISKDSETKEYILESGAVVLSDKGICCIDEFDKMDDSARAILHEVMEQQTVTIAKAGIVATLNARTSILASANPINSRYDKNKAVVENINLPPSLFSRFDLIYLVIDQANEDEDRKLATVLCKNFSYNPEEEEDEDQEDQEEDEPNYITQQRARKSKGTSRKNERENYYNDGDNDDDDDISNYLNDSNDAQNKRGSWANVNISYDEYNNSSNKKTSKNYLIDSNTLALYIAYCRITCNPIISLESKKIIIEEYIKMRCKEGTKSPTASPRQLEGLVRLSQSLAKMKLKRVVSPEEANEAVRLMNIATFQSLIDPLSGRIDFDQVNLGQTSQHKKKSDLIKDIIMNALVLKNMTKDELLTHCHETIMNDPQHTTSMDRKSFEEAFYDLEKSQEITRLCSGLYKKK

T3: PfRBX1-HA (P. falciparum) (UniProt O77367)
T3 sequence: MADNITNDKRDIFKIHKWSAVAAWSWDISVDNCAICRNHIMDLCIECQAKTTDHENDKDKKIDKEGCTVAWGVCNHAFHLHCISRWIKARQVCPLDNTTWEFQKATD


Tests used:
[1] = target: T1, PfSKP1-HA (P. falciparum); assay: affinity purification with mass spectrometry; anti-HA agarose immunoprecipitation of PfSKP1-HA from schizont lysate (0.5X RIPA buffer, 1 h at room temperature), LC-MS/MS (DIA); parental DiCre strain as control
[2] = target: T2, PfMCM4-Flag (P. falciparum); assay: affinity purification with mass spectrometry; anti-Flag agarose immunoprecipitation of PfMCM4-Flag from schizont lysate (0.5X RIPA buffer), LC-MS/MS; DiCre strain as control; also from DiCre-PfSKP1-HA and DiCre-PfRBX1-HA backgrounds pre-treated with DMSO or rapamycin
[3] = target: T3, PfRBX1-HA (P. falciparum); assay: affinity purification with mass spectrometry; anti-HA agarose immunoprecipitation of PfRBX1-HA from schizont lysate (0.5X RIPA buffer, 1 h at room temperature), LC-MS/MS (DIA); parental DiCre strain as control

Molecule	binding [2]	binding [3]	binding [1]
palmitoytransferase PfDHHC2 (from UniProt C6KSU5) (enzyme)	–	–	binds
inner membrane complex protein (PF3D7_0522600) (from UniProt Q8I3N7)	–	–	binds
PfGAP40 (from UniProt Q8I3V1)	–	–	binds
PfMCM7 (protein, UniProt Q8IC16 1-821) MGERRRDIRSYLDDSHTKYLEAVKNYNAHIDELVRFLDTFEDPAVNHTNWGKLKYKGYLQKIYNHDTEVLPIYLGDLREYFSKENDDVDYSVYNGIMTNTHRYMELLYSAADKCLSDECYKRFMRGYGEEDESEKIKKRNLRRINNEDNSGYSTDESEKEAFNNLFRDMIKPIEEIRQERMKEYKLPAYLRVNFEIILIPSSRDLVRKMRIVNADCIGSLSTFECEVIRATQLKPRIQVATYECDRCHVFAYKAVDGPFFMPLFDCPGCTNVHGVRGSLKFQSKLSKFVKYQEIKVQELSSQLPEGDIPRSMNCIIHGESTTSIQPGMSVTLTGVLMPVTKSGYQALKGGLIAEKVFHIYYVQNNKENFNEHIDNYDKIMEQVQELKNSPNLYEKLAYNIGPEIYGHDDVKKALLLQLIGGCTKKKKDGGLIRGDIHILLMGDPGVAKSQLMKKVCLIASRSIYTTGKGSSSVGLTAAVLKDPNTGETTLEGGALVLADKGICCIDEFDKMDEYDRSAIYEVMEQQTVSIAKAGHCSNMPARSSVLAAANPVNGKYDCKKSVMLNMNLPAALLTRFDLQFLLLDVSDREKDKKLAEHVLNILKCIDSSDEKKKKSELNDDGYEEIDKTVLRAFIQLAKKKQPTISPELIPKITQWYVSTRQLESQQERYSDTRINYTTPRALLAILRISQALARLRDSDVIETADFEEAIRLTEQSKASVSLQTEKRRRKDVSNEIMNIIKNIKDKIMEKKKRWNGWIPIEEIERQSVTKGFTRAHVMNTIDKYVELTVFTINENNTAIAFPNDVYNEDDEYDEMEQEDYE	binds	–	–

Now from value to molecule, other results behind:

binding [2]	binding [3]	Molecule	binding [1]
binds	–	PfMCM binding protein (PfMCMBP) (protein, UniProt Q8ILX3 1-956) MNVLNQIDECFSDYLKIYGPKEIDSHWDEGVVVNKYITLGKAKDNNENKDNINKGDDNNNNNNNNIKEEINKKNDLSEEKNGNYKNYSNDKENDNSTYMAKNKKQKENLFICNDLVEKCICLNNLESLEEIEDASLVRWTCMIQQIISPESYLGIYKLKNKENGKIIMKSSKYKDYIDAEDNWEIVEENEKRGMGEYYEFNINKYYENGDNKMDQTVDILKNNQDVDKKIDEHNKKDEKSDPNKICSNEQNDITNNNTYDNMELYENDGNFNKYWKRYLFFCTNIPGNKSAWTKELYDYSSSYVNREVFLKSKSDYENGIYLKDVKDPMNNEDVNNSVASSTDISNYMNSNNNNNNSINNIYSSREYICSSNELNETQNNNNNKDKNEYKKIDTNDKINNNNSNNNSNNNSKSNHNNNYYFINSTDLDMNSNISSNICSYNISPVNTSNKIRCVIKIYDDDSQYNGKNDKEFLKLNDVIEIIGIYRKHQIKDFEDYKKNYNFYFYYDQHFLKYPCIHIFQYKKINYFNPLNNCILFKNDLSIIISQGPFNDIQKLRHHLIMYISSAFNNDMLIAHYFFFYLCGSYIKESKLKLGKISLNIFNILYNNEIEKLNDHISSDNVNPDQMKKLQNKIPNDIDLEKDANQLKVTNNNCFLNSNNKVLVKEADKKGIAPHAKKINKMIKNLIPLYRYIPLILQKLNTEYLVSVMNNQYGELKKGKLQLANNTYLTFDECLLDVGNLNNISIKNFQCIERLITSQEIPFIFNMDIIFQTEHNILILSKKKSMYSHYVDIAIPICHYNKIKHNLTDTNNEQKNENIENVKGSTNNDEPSNSHDQKNEQTKGIFSSEFYNNINNNYKPNEKELMQFRRYINYILSKNHSAKIPEDITNYITDSFVLLRQKNKDINQFVLNSWICMSRILAFSDGHNEINRDHWDYIMKLENERRLRLNNLNKIYI	–
binds	–	PfMCM6 (protein, UniProt Q8IDF0 1-929) MSAIFNESELSGLDAHSAFGNNETSSFQKKKRRIDENSQMSVNDLVDDGEEEEDDDDDEEEPSYVQDQNMAKVFEKFLKTFSEKKSEEDDDDGDSIWKDSLNFDFPSNLEIAKDSHYVLLLFSILQNSYSRNKVLIVDMKHVLMWEPTDKNRFDIGSQLYMYIKRHFLRILDIFEKKVQLLAESINPIKTKEVGKICLRFYNKKNPIHSLRSLRCEMLGEMISVRGQVTRTSDVRPELTLAAFKCNECGNIINGVKQQFRYTQPSKCPSASCSNMSDWSLVLEQSYFVDWQKIRLQEIAQESPPGSMPRNMDVILRNDIVDSVHAGDRIIVTGCLIVVPDIPTLMKPGDVPRSVARQLLKKNENSLVSQGLTGIKGVGVQDLNHKLCIYACQIEKLNSSKKDNNFDEQTQVDINCEEILNCDDLKWLRDIAMHPNTIDILAECIAPKIWGNLEIKKGALLMMTGGVQKITSNCKLRGDINMCIVGDPGTAKSEILKYVESFAPRAIFTSGKGSTAAGLTAAVHRDPDQGDTVLEAGALMYADQGICCIDEFDKMDEKDRVAIHEAMEQQTISITKAGIQATLNARASVLAACNPKYGRYDTLKTFAQNVNIPAPLLSRFDLFYTMLDCIDIDKDTSIANHLVSMHCGEEAEKHLRANAGKLDSVKLEIYLELSKRVKPLLTDEAKYKLIQYYVSFRNIEYSPGAQRSMRMTVRQLESLIRLSEAVAKLKFSHFVDVKHVEIACSIFKASMKKISNEKEINLDEEFDKVNNSLMGNKVNKLDQETENTEQNKKITTIKASEYQYISAIIFEIIKEYEFNNNNESITQDQLIETYLQVYAKAESSEQVDEWIYKLKKIINRLINQDIKLLSETNEDDPEKVIIRIHPNYAGPIVEGVSNKNTYGYNTFKNYQTQEKAPEDDVDFQEEIDNF	–
binds	binds	PfCullin2 (protein, UniProt C6KTD3 1-1129) MDPTAVNNYPVFYVKNKDFLNVDNEHIRCSLKRFEEYIHECFSILPYNKIKIQNEEKISVQHFCDVLVFNQCEQIICAIIEKECNEKTKQFFEEVEIRIKNEEFKNGEEEFLKLFVSIWNNFSLVLIHISDILQSFIAYTKNMCCNFFDPTQIFNYLWKKYINQYVIIKNMFISSICNYLTYDKIYCETYFYEYVCVNICNKYATKRYNLKKNQINYIERLQNIQKNYQVNNEATNKQTNKINKKDCINKKEIPTENITYKTKEEEHIQRGDHNNNNNYNNSYDNNNYSDDIYNSNPYLDDTNHEYKNTQKKKKINDKVLSLSIKISDILNLYDDFERIYKNETYTFYKEKIEKYKKDMETLGYEECNFDFPIIVENYLCHEQIRSRKFLKEHTEITILNMLKDLLLVKNRDVLFKDSYIKYCIIKEKYDPLRSVYLYSLNLDDLENFSNIFFNVVDNIGTELVNDVINKRNNSSLLNNAIIKLINFKLNVDRIIIMSFRYSSYFMKKWREVFEHFINKGIQAETYMPIILSMYLNNLLTMYNACLRKLKKYYILNKKIKNNRSLFNNLLFEVDWNNYCTQPISETIDFYDISTDSDNMLGIKKYLRKKRKNTKKDLINFEHEEEYVKRKHMDNNIHNNDHNDNIYFNNNLYFNNDYHNNLYYDSLNINKRSDEKIFFHLLKIDKLFKKYHIIGKYIMNMITVILSLFRYVSDKEKFEKYYRTYMCKRLINDSSFNIILDVKVFKTLKKECGAQFTKKIEIILKDMKFTSKTLMKFYKELPNNVNHFLKRKKYAVNIIFNESWEYVNTENNVIYPPMIKMCNEAFFLFYQKYNKSKNIKFLPLLGLCTLRVHFKNFKEEGSFDLGKRDDNNDEKRDDNNDEKRDHNNIEKRDDNNIEKRDDNNIEKRDDNNIEKRDDNNDEKRDENNDKKRDENNNYSDDNDDDLNNEDSSSTYNKKGKKKIYITVTILQALVLLLFNKKNEYHINEIKELTGISTENIIRYLKTIYTIGETHILIYDKANEILKLNFSFRSKKKFLIVNYNDVLYKDDMGPTTSLLNEDNEIEDKTLHIDAAIVKFLKTNGKSSERKICSFIKDKMDISSNEQIKNRISSLLSREFIFFKNNNYHYEL	–

Reference: paper PMC12218279
